Measured data: PubChem BioAssay AID1259405 (NCATS, 2018)
Shown is a random part of about 50,000 reagents. About 4,000 of all reagents (8%) count as active. 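Mouse siRNA library applied to hamster cells; one well for each siRNA.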 Entries without a mark were called inactive. The numbers tell different reagents against one gene apart.

Assay: 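Knock-downs that lift recombinant protein yield in hamster ovary cells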 (primary screen)
Cell system: Chinese hamster CHO-K1 ovary cells with stable secreted eGFP expression
Reagent: single siRNA against mouse genes, 0.8 pmol siRNA per well (2 µl of 400 nM stock)
Timing: 3 days
Read-out: 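Per-well intracellular GFP measured by laser scanning cytometry, plus viability from ATP luminescence, each relative to plate median of non-targeting control wells, in %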
Scale: GFP, % of control: higher = more GFP per well, higher productivity; viability (ATP), % of control: higher = more viable cells (more ATP)
Active means: 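Called active when intracellular GFP, relative to negative control, is at or above 120%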

no.	gene	siRNA no.	GFP, % of control	viability (ATP), % of control
1	Trappc13 (trafficking protein particle complex 13)	1	75.2	75.6
2	Trappc13 (trafficking protein particle complex 13)	2	63.5	67.3
3	Trappc13 (trafficking protein particle complex 13)	3	89.4	92.9
4	Tmem42 (transmembrane protein 42)	1	94	87.8
5	Tmem42 (transmembrane protein 42)	2	94.6	96.9
6	Tmem42 (transmembrane protein 42)	3	101	91.1
7	Sppl2c (signal peptide peptidase 2C)	1	76.9	73.5
8	Sppl2c (signal peptide peptidase 2C)	2	51.6	78.1
9	Sppl2c (signal peptide peptidase 2C)	3	71.7	75.8
10	Gpr153 (G protein-coupled receptor 153)	1	40.8	64.9
11	Gpr153 (G protein-coupled receptor 153)	2	131 (active)	102

5 neighbouring entries from above, quoted:
no.	gene	siRNA no.	GFP, % of control	viability (ATP), % of control
1	Trappc13 (trafficking protein particle complex 13)	1	75.2	75.6
2	Trappc13 (trafficking protein particle complex 13)	2	63.5	67.3
3	Trappc13 (trafficking protein particle complex 13)	3	89.4	92.9
4	Tmem42 (transmembrane protein 42)	1	94	87.8
5	Tmem42 (transmembrane protein 42)	2	94.6	96.9

The results go on.
no.	gene	siRNA no.	GFP, % of control	viability (ATP), % of control
12	Exoc3l2 (exocyst complex component 3-like 2)	1	70.3	83.8
13	Exoc3l2 (exocyst complex component 3-like 2)	2	101	113
14	Exoc3l2 (exocyst complex component 3-like 2)	3	118	136
15	Traf3 (TNF receptor-associated factor 3)	1	116	97
16	Traf3 (TNF receptor-associated factor 3)	2	131 (active)	101
17	Traf3 (TNF receptor-associated factor 3)	3	141 (active)	103
18	Pde8b (phosphodiesterase 8B)	1	115	151
19	Pde8b (phosphodiesterase 8B)	2	87.7	101
20	Pde8b (phosphodiesterase 8B)	3	67.1	74.5
21	Prm2 (protamine 2)	1	24.1	13.2
22	Prm2 (protamine 2)	2	87.5	49.5
23	Prm2 (protamine 2)	3	74.2	87.5
24	Cd209d (CD209d antigen)	1	85.3	82
25	Cd209d (CD209d antigen)	2	75.6	68.9
26	Cd209d (CD209d antigen)	3	65.3	99.2
27	Laptm4b (lysosomal-associated protein transmembrane 4B)	1	75	84.6
28	Laptm4b (lysosomal-associated protein transmembrane 4B)	2	82.4	71.7
29	Laptm4b (lysosomal-associated protein transmembrane 4B)	3	83	94.6
30	Bcl6b (B cell CLL/lymphoma 6, member B)	1	76.4	57.1
31	Bcl6b (B cell CLL/lymphoma 6, member B)	2	48.5	51.9
32	Vac14 (Vac14 homolog (S. cerevisiae))	1	81.2	111
33	Vac14 (Vac14 homolog (S. cerevisiae))	2	162 (active)	118
34	Vac14 (Vac14 homolog (S. cerevisiae))	3	85.9	96
